From PMC6361149 come the findings set out here.

Chains of the proteins cited; added tags and fusions are not shown. Lines headed by an entry give the natural chain unless they say otherwise; changes in a name come on top.
UniProt O15265: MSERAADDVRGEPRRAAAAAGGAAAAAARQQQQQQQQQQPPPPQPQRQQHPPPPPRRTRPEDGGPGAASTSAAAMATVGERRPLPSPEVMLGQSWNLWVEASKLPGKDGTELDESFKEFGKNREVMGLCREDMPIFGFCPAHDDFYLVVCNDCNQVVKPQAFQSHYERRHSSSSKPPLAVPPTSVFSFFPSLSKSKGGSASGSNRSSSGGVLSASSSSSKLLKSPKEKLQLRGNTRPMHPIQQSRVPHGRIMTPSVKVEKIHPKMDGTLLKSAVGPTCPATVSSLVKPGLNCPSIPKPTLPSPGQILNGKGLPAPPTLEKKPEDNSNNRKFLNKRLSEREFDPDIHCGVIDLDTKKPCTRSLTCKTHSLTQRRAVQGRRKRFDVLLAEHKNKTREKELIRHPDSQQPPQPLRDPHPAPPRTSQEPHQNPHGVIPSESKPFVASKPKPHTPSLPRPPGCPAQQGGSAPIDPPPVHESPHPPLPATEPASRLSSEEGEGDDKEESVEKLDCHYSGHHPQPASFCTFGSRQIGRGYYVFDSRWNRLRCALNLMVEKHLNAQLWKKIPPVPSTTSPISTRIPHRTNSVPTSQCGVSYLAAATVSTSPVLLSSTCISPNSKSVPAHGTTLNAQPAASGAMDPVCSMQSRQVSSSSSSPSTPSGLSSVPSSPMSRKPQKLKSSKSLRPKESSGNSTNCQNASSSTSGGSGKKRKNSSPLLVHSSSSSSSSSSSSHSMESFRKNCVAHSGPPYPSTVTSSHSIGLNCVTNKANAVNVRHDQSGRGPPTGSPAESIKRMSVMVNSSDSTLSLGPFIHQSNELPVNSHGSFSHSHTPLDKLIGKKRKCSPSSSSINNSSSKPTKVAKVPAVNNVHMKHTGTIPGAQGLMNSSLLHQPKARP
UniProt P61956: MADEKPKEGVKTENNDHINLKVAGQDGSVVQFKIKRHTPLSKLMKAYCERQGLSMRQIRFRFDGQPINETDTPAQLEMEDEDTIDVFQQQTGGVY

These are yes or no findings as the source states them, for the method shown. Binding seen in cells or lysates may run through a third protein. Binding can be weak; no strength is given.

The test concerns the target mutant ataxin-7 with 72 glutamines (ATXN7-72Q) (human) (UniProt O15265). Nature of the test: proximity ligation; HeLa cells overexpressing ATXN7-72Q alone or with HA-SUMO2; mouse monoclonal anti-1C1 (ATXN7) and rabbit polyclonal anti-SUMO2/3; detects proteins closer than 40 nm; controls with one of the two antibodies gave no signal.

As to HA-SUMO2 (from UniProt P61956 1-95), the binding result is “binds”.
